Results are given in words; binding and its absence hold for the method and conditions named. Some entries that bind do so weakly or less than the wild type.
Columns and labels:
[1] = molecular target: Siglec-8 extracellular domain (ECD) (human) (UniProt Q9NYZ4); assay: ELISA, Siglec-8-ECD coated on the plate, time 0
[2] = molecular target: Siglec-8 extracellular domain (ECD) (human) (UniProt Q9NYZ4); assay: ELISA, Siglec-8-ECD coated on the plate, formulations of Table A
[3] = molecular target: Siglec-8 extracellular domain (ECD) (human) (UniProt Q9NYZ4); assay: ELISA, Siglec-8-ECD coated on the plate, after 1 week at 37 C

The chains behind the UniProt entries cited, without tags or fusion partners. Residues count along the entry.
UniProt Q9NYZ4, residues 17-363: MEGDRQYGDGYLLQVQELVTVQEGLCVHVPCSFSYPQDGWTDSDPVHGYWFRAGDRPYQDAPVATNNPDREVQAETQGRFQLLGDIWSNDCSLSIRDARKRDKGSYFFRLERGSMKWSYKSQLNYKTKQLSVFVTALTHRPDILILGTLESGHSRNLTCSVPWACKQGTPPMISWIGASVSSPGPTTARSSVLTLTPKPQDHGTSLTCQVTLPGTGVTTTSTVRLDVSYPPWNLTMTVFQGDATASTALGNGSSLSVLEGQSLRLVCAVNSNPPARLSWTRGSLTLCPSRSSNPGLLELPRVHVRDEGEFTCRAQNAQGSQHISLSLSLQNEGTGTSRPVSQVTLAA

binding [1]: binds | binding [2]: binds | binding [3]: binds
B1: anti-Siglec-8 antibody HEKF (antibody, human IgG1, kappa, V domains shown)
VH: EVQLVESGGGLVQPGGSLRLSCAASGFSLTIYGAHWVRQAPGKGLEWVGVIWAGGSTNYNSALMSRFTISKDNSKNTVYLQMNSLRAEDTAVYYCARDGSSPYYYSMEYWGQGTTVTVSS
VL: EIVLTQSPATLSLSPGERATLSCSATSSVSYMHWFQQKPGQAPRLLIYSTSNLASGIPARFSGSGSGTDYTLTISSLEPEDFAVYYCQQRSSYPFTFGPGTKLDIKR
